From PubChem BioAssay AID1347075 (National Center for Advancing Translational Sciences (NCATS), 2019)
The campaign covered roughly 400,000 compounds. About 5,500 (1.4%) were called active. This list was built around the results that the source calls inconclusive (neither active nor inactive); the mix of calls is not that of the screen. The call rests on the fitted dose curve; in most records, active means well fitted cell-killing curve with a large enough effect; inconclusive means small, poorly fitted or top-dose-only effect, or effect the other way; inactive means flat fitted curve, though single readings scatter. Potencies beside an inconclusive call are fits to weak or partial responses and may not hold up.
On the % scale 0 is the no-effect control and ±100 the full control effect; potency means the concentration at half of the fitted maximal effect.

Assay: qHTS assay for MDR1-selective chemotherapeutics: Primary screen using the parental adenocarcinoma cell KB-3-1; further: nearly all actives have a fitted effect of over 60% in size
Conditions: KB-3-1 viability, CellTiter-Glo ATP luminescence, 72 h; activity change, negative = cytotoxic: at 46.1 µM (top of the series)
In short: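 Cytotoxicity in the drug-sensitive parental line KB-3-1 was scored as loss of CellTiter-Glo luminescence following 72 h incubation with compound. Values come from curve fitting of normalized concentration-response data.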
For `O=C(CCNC(=O)C1CCN(S(=O)(=O)c2ccccc2)CC1)NCCc1ccc(Cl)cc1`, the “activity change, negative = cytotoxic” value was inactive: 2.73%. With `Cc1ccc(C)c(NC(=O)c2ccccc2NS(=O)(=O)c2cc([N+](=O)[O-])ccc2C)c1` the Potency was active: 20.6 µM. With `COc1ccc(/C=N/NC(=O)CC(=O)NCCc2ccccc2)cc1OC` the Potency was inconclusive: 16.4 µM [rising, partial curve, poor fit]. For `Cc1cc2nc(CO)[nH]c2cc1C`, the “activity change, negative = cytotoxic” value was inactive: -4.11%. With `CC1(C)C(=O)CC[C@]2(C)C3C(=O)C=C4[C@H]5C[C@@](C)(C(=O)O)CC[C@]5(C)CC[C@]4(C)[C@]3(C)CC[C@@H]12` (some centres not stated) the “activity change, negative = cytotoxic” value was inactive: -6.37%. For `CCCCn1c(N)c(N(CC)C(=O)C2CCC2)c(=O)[nH]c1=O`, the “activity change, negative = cytotoxic” value was inactive: -2.99%. For `CCN1CCc2c(C#N)c(N3CCCCC3)nc(NCc3ccccc3)c2C1`, the Potency was inconclusive: 29.1 µM [cytotoxic, single point]. With `CCOc1ccc(NC(=O)NCCN2CCN(c3cc(Cl)ccc3C)CC2)cc1` the “activity change, negative = cytotoxic” value was inactive: -11.9%. With `Cc1ccc(N2CCN(C(=O)c3cc(C(=O)c4ccccc4C)c[nH]3)CC2)c(C)c1` the Potency was inconclusive: 14.6 µM [cytotoxic, partial curve, poor fit]. For `CCCN1CCN(S(=O)(=O)c2ccc3c(c2)NC(=O)C(C)S3)CC1` (configuration not stated), the Potency was inconclusive: 3.26 µM [cytotoxic, full curve]. For `CC(Cc1ccccc1)NC(=S)CN1CCCC1=S` (configuration not stated), the “activity change, negative = cytotoxic” value was inactive: -0.215%. For `COCC(=O)N(C)C[C@@H]1Oc2cc(-c3ccc(F)cc3)ccc2S(=O)(=O)N([C@H](C)CO)C[C@H]1C`, the “activity change, negative = cytotoxic” value was inactive: 5.89%. For `COc1ccc(-c2nn(C)c3sc(C(=O)NCCN(C)C)cc23)cc1OC`, the Potency was “inactive”. With `CCCN1C(=O)C(=O)N(CC(=O)c2cc(C)n(C3CC3)c2C)C1=O` the activity change, negative = cytotoxic was inconclusive: 7.75%. For `CCOc1cc(C)nc(NCc2ccccc2)n1`, the “activity change, negative = cytotoxic” value was inactive: 0%. In the case of `CC1(C)CC2CC(C)(CN2C(=S)Nc2ccccc2)C1` (configuration not stated), the “activity change, negative = cytotoxic” value is reported as inactive: -11.3%. With `COc1ccc(C(O)(CCC(C)C)C(CN2CCOCC2)c2ccccc2)cc1` (configuration not stated) the Potency was inconclusive: 29.1 µM [cytotoxic, single point]. With `CCC/C=C/c1ccc(CN2C(CC(C)C)C(=O)N(Cc3cn(CCC4OCCO4)nn3)CCS2(=O)=O)cc1` (configuration not stated) the Potency was inconclusive: 10.3 µM [cytotoxic, partial curve, poor fit]. In the case of `CCC1Nc2ncnc(N3CCc4ccccc4C3)c2N(Cc2ccc(Cl)cc2)C1=O` (configuration not stated), the Potency is reported as inconclusive: 29.1 µM [cytotoxic, single point]. With `CN(c1ccc(C(=O)N2CCN(Cc3ccccc3)CC2)cc1)S(=O)(=O)c1ccc(Cl)cc1` the Potency was inconclusive: 18.4 µM [cytotoxic, partial curve]. With `COc1cc(/C=N/n2cnn(Cc3ccccc3Cl)c2=S)cc(OC)c1OC` the “activity change, negative = cytotoxic” value was inactive: 1.56%. For `COc1ccc(C(=O)CC2(O)C(=O)N(Cc3ccccc3)c3ccc(Br)cc32)cc1` (configuration not stated), the Potency was inconclusive: 29.1 µM [cytotoxic, single point]. In the case of `Cc1cccc(C(=O)N/N=C/c2ccc(OC3CSC3)cc2)c1`, the Potency is reported as inconclusive: 16.4 µM [cytotoxic, single point]. For `CCN(CC)CCOCCn1c(C)ccc1C`, the “activity change, negative = cytotoxic” value was inactive: -5.52%. In the case of `O=S(=O)(c1ccccc1OC(F)(F)F)N1CCN(c2ccnc3cc(Cl)ccc23)CC1`, the Potency is reported as inconclusive: 11.6 µM [cytotoxic, partial curve, poor fit]. With `CC1CCCC(C)N1C(=O)CSc1nc(N)cc(N)n1` (configuration not stated) the “activity change, negative = cytotoxic” value was inactive: -9.94%. For `O=C(/C=C/c1ccc(O)cc1)c1ccc(NC2=C(N3CCCCC3)C(=O)c3ccccc3C2=O)cc1`, the Potency was active: 2.06 µM. In the case of `COc1ccc(S(=O)(=O)N2CCC(c3cc(-c4cccc5ccccc45)n[nH]3)CC2)cc1`, the Potency is reported as inconclusive: 29.1 µM [cytotoxic, single point]. For `Cn1c(=O)n(C)c2cc([N+](=O)[O-])c(N3CCN(CCO)CC3)cc21`, the “activity change, negative = cytotoxic” value was inactive: 12.6%. In the case of `CC1(C(=O)Nc2ccc(Cl)c(C(F)(F)F)c2)Cc2c(-c3cccc(C(N)=O)c3)ccnc2O1` (configuration not stated), the “activity change, negative = cytotoxic” value is reported as inactive: -27.7%. With `CCN(CC)S(=O)(=O)c1cccc(NC(=O)CCNC(=O)c2ccc([N+](=O)[O-])cc2)c1` the “activity change, negative = cytotoxic” value was inactive: -4.18%. In the case of `CCCC1CCc2c(sc(NC(=O)OCC)c2C#N)C1` (configuration not stated), the Potency is reported as inconclusive: 20.6 µM [cytotoxic, single point]. In the case of `O=C(Nc1ccc(OC(F)F)c(Cl)c1)C(c1ccccc1)c1ccccc1`, the Potency is reported as inconclusive: 29.1 µM [cytotoxic, single point]. For `Cc1cccc(NC(=O)c2nc[nH]c2C(=O)Nc2cccc(C)c2)c1`, the “activity change, negative = cytotoxic” value was inactive: -6.09%. With `CCc1nc(SC)ncc1C(=O)NCc1cccc(Br)c1` the “activity change, negative = cytotoxic” value was inactive: -6.27%. With `COc1ccc(NC(=O)Cn2nnc(C(=O)NCc3ccccc3)c2N)c(OC)c1` the Potency was inconclusive: 18.4 µM [cytotoxic, partial curve]. With `COc1cccc(C(c2nnnn2CCc2ccccc2)N2CCN(c3ccccc3)CC2)c1OC` (configuration not stated) the Potency was inconclusive: 29.1 µM [cytotoxic, single point]. With `c1ccc(COc2ccc(-c3cc4nc(NCCOc5ccccc5)ccn4n3)cc2)cc1` the “activity change, negative = cytotoxic” value was inactive: 0%. In the case of `CCOc1cc(S(=O)(=O)Nc2ccccn2)ccc1F`, the “activity change, negative = cytotoxic” value is reported as inactive: 10.5%. For `CN(C)C(=S)NC(=S)Nc1ccc2ccccc2c1`, the Potency was inconclusive: 29.1 µM [cytotoxic, single point]. In the case of `O=C(CCl)Nc1ccc(N2CCCCCC2)cc1`, the Potency is reported as inconclusive: 29.1 µM [cytotoxic, single point]. For `Cc1ccc(Cl)cc1N1CCN(c2nc3ccc(C(=O)c4ccccc4)cc3n3cnnc23)CC1`, the “activity change, negative = cytotoxic” value was inactive: -13.1%. In the case of `COc1cc(OC)cc(C(=O)N[C@H](C(=O)Nc2nc(-c3ccc(OC)c(OC)c3)cs2)C(C)C)c1`, the Potency is reported as inconclusive: 23.1 µM [cytotoxic, single point]. In the case of `COc1ccc(OC)c(NC(=O)C2CCCN(S(=O)(=O)c3ccc(-n4cnnn4)cc3)C2)c1` (configuration not stated), the Potency is reported as inconclusive: 29.1 µM [rising, single point]. With `O=C(NNC(=O)C1CCN(S(=O)(=O)c2ccccc2C(F)(F)F)CC1)c1ccccc1O` the Potency was inconclusive: 23.1 µM [cytotoxic, single point]. For `Cc1ccc(CNC(=O)CSc2c(C)cnc3c2c(=O)n(C)c(=O)n3C)cc1`, the “activity change, negative = cytotoxic” value was inactive: 7.68%. In the case of `CCc1ccc(/C=N/NC(=O)c2cc(C3CC3)nc3ccccc23)s1`, the Potency is reported as active: 5.17 µM. In the case of `CCOc1cc(CNCCc2ccc(S(N)(=O)=O)cc2)ccc1OCc1ccccc1`, the Potency is reported as inconclusive: 25.9 µM [cytotoxic, partial curve, poor fit]. For `CC1CCN(S(=O)(=O)c2ccc3nc(NCc4ccc(N(C)C)cc4)ccc3c2)CC1`, the Potency was inconclusive: 29.1 µM [cytotoxic, single point]. In the case of `CC(C)C[C@@H]1NC(=O)[C@H](CO)NC(=O)c2cc([N+](=O)[O-])cc(I)c2OCC[C@@H](C(N)=O)NC1=O`, the “activity change, negative = cytotoxic” value is reported as inactive: 16.8%. With `O=C(CCl)N1CCN(S(=O)(=O)c2ccc3c(c2)OCCCO3)CC1` the Potency was inconclusive: 32.6 µM [cytotoxic, single point]. With `NC(=O)C1(N2CCCCC2)CCN(C(=S)Nc2cc(F)cc(F)c2)CC1` the “activity change, negative = cytotoxic” value was inactive: -13.5%. With `COc1ccc(-c2c([C@H]3[C@H]4C=CC[C@@H](C)[C@@H]4C(=O)N3Cc3ccccc3)ccc3ccccc23)cc1` the Potency was inconclusive: 29.1 µM [cytotoxic, single point]. For `Cn1c(N2CCN(C(=O)NCc3ccccc3)CC2)nc2ccccc21`, the “activity change, negative = cytotoxic” value was inactive: 3.41%. For `Oc1ccc(N2CCN(C(=S)NCCc3ccccc3)CC2)cc1`, the Potency was inconclusive: 5.8 µM [cytotoxic, partial curve]. With `CCn1nc(C)c2c(-c3ccccc3)cc(=O)n(C(C)C(=O)Nc3ccc(OC)c(OC)c3)c21` (configuration not stated) the “activity change, negative = cytotoxic” value was inactive: -13%. With `COc1ccccc1NS(=O)(=O)c1ccc(-c2cnc(C3CC3)o2)cc1` the Potency was active: 1.03 µM. In the case of `Cc1cccc(S(=O)(=O)Nc2cccc3c2C(=O)c2ccccc2-3)c1`, the “activity change, negative = cytotoxic” value is reported as inactive: -28.9%. In the case of `CCn1c(=NC(=O)CSC(C)=O)sc2ccccc21`, the “activity change, negative = cytotoxic” value is reported as inactive: 3.51%. For `COc1cccc(NC(=O)Nc2ccc(Cc3ccncc3)cc2)c1`, the Potency was inconclusive: 29.1 µM [cytotoxic, single point]. For `CS(=O)(=O)N1N=C(c2ccc(Br)cc2)CC1c1ccc2c(c1)OCO2` (configuration not stated), the “activity change, negative = cytotoxic” value was inactive: 7.58%. For `CC(CN1CCC(n2nccc2NC(=O)CCCc2ccccc2)CC1)c1ccccc1` (configuration not stated), the “activity change, negative = cytotoxic” value was inactive: -3.68%. With `Cc1c(O)c(C)c2c(c1O)C(=O)C[C@@H](c1ccccc1)O2` the Potency was inconclusive: 29.1 µM [cytotoxic, single point]. With `COC(=O)c1ccc(CSc2nc3c(c(=O)n2-c2ccc(C)cc2)SCC3)o1` the Potency was inconclusive: 23.1 µM [cytotoxic, single point]. With `CC(C)n1c(=O)c2ccccc2n1Cc1cn(-c2ccccc2)nn1` the Potency was inconclusive: 23.1 µM [cytotoxic, single point]. In the case of `O=C(CCN1CCc2ccccc2C1)Nc1ccc(F)cc1`, the “activity change, negative = cytotoxic” value is reported as inactive: -0.721%. In the case of `Cn1c(-c2c(N)n(CCCc3ccccc3)c3nc4ccccc4nc23)nc2ccccc21`, the Potency is reported as inconclusive: 29.1 µM [cytotoxic, single point]. In the case of `COc1cccc(C(C(=O)NCC2CCCO2)N(C(=O)Cn2nnc3ccccc32)c2ccc(NC(C)=O)cc2)c1` (configuration not stated), the Potency is reported as inconclusive: 0.13 µM [rising, full curve]. With `CCc1c(C2(O)CCCCC2)[nH]c2ccc(C#N)cc12` the Potency was inconclusive: 25.9 µM [cytotoxic, single point]. For `Cc1cccc(OCCC(=O)Nc2ccc(C)c(S(=O)(=O)N3CCCCC3)c2)c1`, the Potency was inconclusive: 32.6 µM [cytotoxic, single point]. In the case of `COc1ccccc1N1CCN(CCCCCCOc2ccc(F)cc2)CC1`, the Potency is reported as inconclusive: 23.1 µM [cytotoxic, single point]. With `O=c1c2cccnc2[nH]c(=S)n1CCCN1CCN(c2ccc(F)cc2)CC1` the Potency was inconclusive: 4.11 µM [cytotoxic, full curve, poor fit].
